This passage reports binding results from article PMC11102862.

Amino acid sequences for entries named in this document (tags omitted).
UniProt Q9Y5U2: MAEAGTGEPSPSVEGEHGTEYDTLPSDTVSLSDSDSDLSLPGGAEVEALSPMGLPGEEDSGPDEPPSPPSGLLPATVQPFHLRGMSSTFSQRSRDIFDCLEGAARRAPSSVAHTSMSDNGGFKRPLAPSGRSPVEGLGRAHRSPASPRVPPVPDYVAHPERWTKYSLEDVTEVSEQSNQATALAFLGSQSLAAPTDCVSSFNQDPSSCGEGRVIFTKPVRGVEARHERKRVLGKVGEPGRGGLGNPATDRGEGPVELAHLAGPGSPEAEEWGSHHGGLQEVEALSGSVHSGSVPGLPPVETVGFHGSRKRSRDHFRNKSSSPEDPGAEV
UniProt O75643: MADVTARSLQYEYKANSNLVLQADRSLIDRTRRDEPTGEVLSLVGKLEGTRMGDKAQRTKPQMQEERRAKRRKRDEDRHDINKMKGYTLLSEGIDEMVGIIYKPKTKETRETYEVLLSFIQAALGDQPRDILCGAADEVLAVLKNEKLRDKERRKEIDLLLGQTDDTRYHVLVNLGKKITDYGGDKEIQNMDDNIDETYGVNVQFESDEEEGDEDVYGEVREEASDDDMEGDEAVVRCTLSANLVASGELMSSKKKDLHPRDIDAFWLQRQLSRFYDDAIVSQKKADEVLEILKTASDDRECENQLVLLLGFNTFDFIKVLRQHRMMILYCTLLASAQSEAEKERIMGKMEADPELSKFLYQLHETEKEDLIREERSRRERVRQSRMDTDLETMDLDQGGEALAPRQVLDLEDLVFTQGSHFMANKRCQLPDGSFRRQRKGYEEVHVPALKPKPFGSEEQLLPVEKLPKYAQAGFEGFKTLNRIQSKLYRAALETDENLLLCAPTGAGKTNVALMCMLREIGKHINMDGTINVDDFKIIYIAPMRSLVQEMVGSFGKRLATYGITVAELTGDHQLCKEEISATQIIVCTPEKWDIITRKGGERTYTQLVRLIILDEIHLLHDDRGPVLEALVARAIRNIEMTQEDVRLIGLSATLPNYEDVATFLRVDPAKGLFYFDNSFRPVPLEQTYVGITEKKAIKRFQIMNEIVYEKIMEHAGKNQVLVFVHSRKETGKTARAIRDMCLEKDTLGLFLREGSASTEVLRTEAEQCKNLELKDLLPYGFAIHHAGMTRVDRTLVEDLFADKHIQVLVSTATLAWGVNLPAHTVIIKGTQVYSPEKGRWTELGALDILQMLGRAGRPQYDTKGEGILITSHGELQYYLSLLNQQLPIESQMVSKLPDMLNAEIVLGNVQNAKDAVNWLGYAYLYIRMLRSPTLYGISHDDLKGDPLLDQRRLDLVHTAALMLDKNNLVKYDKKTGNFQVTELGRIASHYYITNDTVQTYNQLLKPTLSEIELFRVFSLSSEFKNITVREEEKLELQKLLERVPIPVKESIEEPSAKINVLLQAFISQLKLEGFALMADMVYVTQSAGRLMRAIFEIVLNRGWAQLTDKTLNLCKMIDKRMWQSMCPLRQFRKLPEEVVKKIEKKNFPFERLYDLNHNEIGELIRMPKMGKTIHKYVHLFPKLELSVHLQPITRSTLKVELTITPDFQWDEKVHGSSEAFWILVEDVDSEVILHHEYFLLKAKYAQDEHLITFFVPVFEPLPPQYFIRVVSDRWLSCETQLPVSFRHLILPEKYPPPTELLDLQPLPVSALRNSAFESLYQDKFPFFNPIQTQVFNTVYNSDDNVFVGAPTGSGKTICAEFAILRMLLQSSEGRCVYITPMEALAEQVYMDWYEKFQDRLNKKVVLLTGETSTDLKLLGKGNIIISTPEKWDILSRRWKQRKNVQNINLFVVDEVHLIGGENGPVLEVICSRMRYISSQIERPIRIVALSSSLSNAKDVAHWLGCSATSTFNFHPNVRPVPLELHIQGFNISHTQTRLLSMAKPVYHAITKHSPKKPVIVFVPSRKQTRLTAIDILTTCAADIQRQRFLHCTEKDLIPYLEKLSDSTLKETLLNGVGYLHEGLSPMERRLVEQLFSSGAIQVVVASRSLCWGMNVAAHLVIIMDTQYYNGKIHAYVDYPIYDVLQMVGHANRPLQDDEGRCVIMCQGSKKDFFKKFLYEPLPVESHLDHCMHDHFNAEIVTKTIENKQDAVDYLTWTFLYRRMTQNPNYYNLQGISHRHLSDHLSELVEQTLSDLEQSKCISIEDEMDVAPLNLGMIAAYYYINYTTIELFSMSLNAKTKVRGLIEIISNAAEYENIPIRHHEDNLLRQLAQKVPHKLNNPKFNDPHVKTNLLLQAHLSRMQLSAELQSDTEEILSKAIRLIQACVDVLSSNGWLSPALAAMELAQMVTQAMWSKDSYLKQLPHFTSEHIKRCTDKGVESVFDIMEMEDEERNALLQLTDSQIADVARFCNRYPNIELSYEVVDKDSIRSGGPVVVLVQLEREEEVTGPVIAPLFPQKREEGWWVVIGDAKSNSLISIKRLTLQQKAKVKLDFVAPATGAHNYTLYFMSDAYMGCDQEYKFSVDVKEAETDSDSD

These are yes or no findings as the source states them, for the method shown. Binding seen in cells or lysates may run through a third protein. A yes stands for co-enrichment or nearness to the bait. Other partners may have been found. Sequences can lack the tags named with a protein.

In this assay the target is T1, 3xFLAG_TEV_SBP-tagged CD2BP2 (human) (UniProt O95400).
T1 sequence: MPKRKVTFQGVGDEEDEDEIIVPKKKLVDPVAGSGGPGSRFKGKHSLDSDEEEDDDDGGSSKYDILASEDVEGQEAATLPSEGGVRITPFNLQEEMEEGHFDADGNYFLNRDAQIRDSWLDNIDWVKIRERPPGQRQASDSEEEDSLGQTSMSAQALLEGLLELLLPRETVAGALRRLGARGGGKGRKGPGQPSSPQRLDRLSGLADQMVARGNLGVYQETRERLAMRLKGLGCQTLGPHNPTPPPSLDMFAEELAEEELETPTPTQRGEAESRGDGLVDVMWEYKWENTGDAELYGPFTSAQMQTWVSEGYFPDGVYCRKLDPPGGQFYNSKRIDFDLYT
Put plainly: affinity purification with mass spectrometry; 3xFLAG_TEV_SBP-CD2BP2 as bait from 293-F nuclear extract adjusted to 500 mM KCl; anti-FLAG M2 gel, TEV elution, streptavidin agarose, biotin elution; composition by solution mass spectrometry (Extended Data Table 1), members also seen in the cryo-EM map of the same preparation.

Regarding TSSC4 (from UniProt Q9Y5U2 1-329), the binding entry is recorded as “binds”.
The same measure for “BRR2 (from UniProt O75643 1-2136) (enzyme)”: “binds”.
